Reference: patent US20130261136A1, “COFFEE EXTRACTS AS INGREDIENTS OF FOODS, DRUGS, COSMETICS, DIETARY SUPPLEMENTS, AND BIOLOGICS” (priority 2010, published 2013)
At least one structure is not confirmed: it was looked up by name or label, or the drawing left a doubt.

What was measured:
[1] = system: human skeletal muscle cells; assay: Glucose uptake (3H-2-deoxyglucose) in skeletal muscle cells; assay type: cell-based; conditions: 0.01 mg/mL
Procedure: Glucose uptake. […] Briefly, primary human subcutaneous adipocytes or primary human myoblasts were differentiated in 96-well microplates. […] All samples, including the positive and negative controls, were tested in triplicate. After a 2-h incubation at 37° C. and 5% CO2, the cells were washed with PBS and lysed. The cell lysate was mixed with scintillation fluid and radioactivity of each well was measured as counts per minute (CPM).

[2] = system: mouse primary neuron cells; assay: Cell survival (MTT) of hydrogen peroxide-treated primary cortical neuron cells; conditions: pre-treatment 2 h, then H2O2 0-1000 μM 30 min

For `Cn1c(=O)c2c(ncn2C)n(C)c1=O` [Caffeine, 1.3.7 trimethylaxanthine], the “Increase in glucose uptake” value ([1]; listed as Pure caffeine) was “did not stimulate glucose uptake”, the “Increase in glucose uptake” value ([1]; listed as pure caffeine) was “no significant effect” and the “Protection against H2O2-induced cell death” value ([2]; listed as Pure caffeine) was “did not protect”. The “Protection against H2O2-induced cell death” value ([2]; listed as pure caffeine) was “does not protect”.
